Measurements from patent publication US11141464B2 (Liu Jianning, priority 2018, dated 2021).

Experiment: general procedure: Fmoc solid-phase peptide synthesis; MBHA Rink amide resin; DIC/HOBt
Conditions: whole synthesis, scale 100 g resin

In the case of “His-Gly-Glu-Gly-Thr-Phe-Pro-Ser-Asp-Val-Ser-Ser-Tyr-Leu-Glu-Gly-Gln-Ala-Ala-Lys-Glu-Phe-Ile-Ala-Trp-Leu-Val-Lys-Gly-Arg-NH2 (HGEGTFPSDVSSYLEGQAAKEFIAWLVKGR; C-terminal amide; (30)..(30) NH2)”, the crude mass is reported as 220 g.
